Laboratory results: patent US20040009530A1 (ZYOMYX, published 2004)
No constants are given. Whether binding was seen depends on the method and setting. Some binding calls cover weakened binding; strength is not graded here.

Chains of the proteins cited; added tags and fusions are not shown. Lines headed by an entry give the natural chain unless they say otherwise; changes in a name come on top.
UniProt P01215: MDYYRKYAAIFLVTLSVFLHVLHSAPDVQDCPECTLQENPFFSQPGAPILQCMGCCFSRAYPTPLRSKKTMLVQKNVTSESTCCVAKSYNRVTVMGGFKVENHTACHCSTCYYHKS

Experiments:
[1] = target: T1, human chorionic gonadotropin (human, UniProt P01215 25-116; P0DN86 21-165, biotinylated using an NHS-SS-biotin reagent (sites not given)); assay: phage display selection and ELISA screen, hCG immobilized
T1 construct: The target was biotinylated and immobilized on Neutravidin- or Streptavidin-coated strip plates; also called hCG

[2] = target: T1, human chorionic gonadotropin; assay: ELISA screen at phage and protein level, biotinylated hCG immobilized

Binder	binding [1]	binding [2]
engineered rubredoxin protein G3 (designed binder, Engineered Pyrococcus furiosus rubredoxin) MAKWVCKICGYIYDEDAGFVEYYGHPNISPGTKFEELSRYVDGWTCPICSYGMPIFEKLED	binds	
engineered chaperonin protein SP4-5 (designed binder, also called engineered protein clone SP4-5; not shown: FLAG-tag from the expression vector upstream of the insertion site) DDDRIPASGIVIARPGESAFMPDVVKNAKIALIDSALEIKKTEIEAKVQISDPSKIQDFLNQETNTFKQMVEKIKKSGANVVLCNGDQADVAYDYLAKEGIYAVHFVDESDMEKLAKATGAKIVTDLDDLTPSVLGEAETVEERKYTEGVPTYVMGCKGSVSHHHHHHSEQKLISEEDLLRLE		binds

The next lines start with the values.

binding [1]	binding [2]	Binder
binds		engineered rubredoxin protein D7 (designed binder, Engineered Pyrococcus furiosus rubredoxin; No tags are stated for the assayed construct) MAKWVCKICGYIYDEDAGEDPGHRSRYISPGTKFEELTTGWTCPICRCTNSTTSTNCFEKLED
binds		engineered rubredoxin protein F3 (designed binder, Engineered Pyrococcus furiosus rubredoxin; No tags are stated for the assayed construct) MAKWVCKICGYIYDEDAGFVEYYDDGVISPGTKFEELHTAWTCPICSCTYNPFEKLED
